Assay results as given in patent US10906990B2, “Antibody with non-natural amino acid introduced therein” (RIKEN, priority 2015, dated 2021).
Structures can show the parent of a compound that is named as a salt.

Assay: Reactivity with Alexa 488 DIBO (click chemistry), analysed by cation exchange chromatography
Settings: Trastuzumab IgG antibodies with o-Az-Z-Lys; 100% when two molecules of Alexa 488 are added; Table 9

Row | Compound | Reactivity (%)
1 | Nc1cccc(COC(=O)NCCCC[C@H](N)C(=O)O)c1 [meta-amino-Z-lysine, N6-{[(3-aminobenzyl)oxy]carbonyl}-L-lysine hydrochloride] | 90.1
2 | N[C@@H](CCCCNC(=O)OCc1cccc(C=O)c1)C(=O)O [meta-formyl-Z-lysine, N6-{[(3-formylbenzyl)oxy]carbonyl}-L-lysine hydrochloride] | 88.4

Same assay, conditions: Trastuzumab-Fabs with o-Az-Z-Lys at a plurality of sites; 100% when every o-Az-Z-Lys carries Alexa 488; Table 8

Row | Compound | Reactivity (%)
3 | [N-]=[N+]=Nc1cccc(COC(=O)NCCCC[C@H](N)C(=O)O)c1 [meta-azido-Z-lysine, N6-{[(3-azidobenzyl)oxy]carbonyl}-L-lysine hydrochloride] | 79.2
4 | C#Cc1cccc(COC(=O)NCCCC[C@H](N)C(=O)O)c1 [meta-ethynyl-Z-lysine, N6-{[(3-ethynylbenzyl)oxy]carbonyl}-L-lysine hydrochloride] | 82.2
5 | [N-]=[N+]=Nc1ccccc1COC(=O)NCCCC[C@H](N)C(=O)O [ortho-azido-Z-lysine, N6-{[(2-azidobenzyl)oxy]carbonyl}-L-lysine hydrochloride] | 84.2
6 | C#Cc1ccccc1COC(=O)NCCCC[C@H](N)C(=O)O [ortho-ethynyl-Z-lysine, N6-{[(2-ethynylbenzyl)oxy]carbonyl}-L-lysine hydrochloride] | 92.8
7 | [N-]=[N+]=Nc1ccc(COC(=O)NCCCC[C@H](N)C(=O)O)cc1 [para-azido-Z-lysine, N6-{[(4-azidobenzyl)oxy]carbonyl}-L-lysine hydrochloride] | 71.1
8 | C#Cc1ccc(COC(=O)NCCCC[C@H](N)C(=O)O)cc1 [para-ethynyl-Z-lysine, N6-{[(4-ethynylbenzyl)oxy]carbonyl}-L-lysine hydrochloride] | 81.2
